Data as given in PubChem BioAssay AID504784 (Drosophila RNAi Screening Center, 2011).
Assay: 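Search for regulators of lipid droplet storage in oleate-fed fly cells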 (primary screen). Cells: Drosophila Kc167 embryonic cells. Reagent: long dsRNA against Drosophila genes, about 250 ng dsRNA per well. Time to read-out: 4 days. Challenge: cells fed 400 µM oleic acid bound to BSA. Detection: 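Cells imaged and segmented; ratio of lipid droplet area to nuclear area, log-transformed, then normalised as a B-score over the screen; higher means more stored lipid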. Reading the numbers: droplet/nuclear area B-score: higher = more stored lipid (overstorage).
The deposit covers about 17,000 reagents; below is a random part of those with a known target gene and a result. 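Each column is one replicate's B-score; the combined score over replicates was not deposited, so single values may mislead.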 A plus sign joins genes that one reagent is predicted to hit. Not all columns of the deposit are shown.

gene knocked down	DRSC id	droplet/nuclear area B-score, replicate 1
luna	DRSC05253	0.554
luna	DRSC06663	0.0337
luna	DRSC07336	0.912
ND-B14.5B (NADH dehydrogenase (ubiquinone) B14.5 B subunit)	DRSC00346	0.945
nis	DRSC00290	-0.384
EbpII (Ejaculatory bulb protein II)	DRSC04637	0.484
EbpII (Ejaculatory bulb protein II)	DRSC22484	-0.00527
CG12546 + CG14452	DRSC11709	-1.74
Cyp4e1 (Cytochrome P450 4e1)	DRSC07370	1.08
CG43317	DRSC15000	1.29
MFS15 (Major Facilitator Superfamily Transporter 15)	DRSC06523	0.338
CG2444	DRSC19846	0.157
Men (Malic enzyme)	DRSC12924	0.644
Men (Malic enzyme)	DRSC16738	1.18
Men (Malic enzyme)	DRSC22694	0.00489
CG2975	DRSC00556	1.57
LSm7 (Like Sm 7)	DRSC02251	-0.531
nero	DRSC15432	-0.157
CG14950 (retired record)	DRSC08409	-0.15
SMC1 (Structural maintenance of chromosomes 1)	DRSC16846	-0.308
GstE4 (Glutathione S transferase E4)	DRSC06674	-0.803
amd (alpha methyl dopa-resistant)	DRSC02608	1.24
amd (alpha methyl dopa-resistant)	DRSC03483	-0.0392
Gs1 (Glutamine synthetase 1)	DRSC00753	0.0908
Phf7 (PHD finger protein 7)	DRSC20692	-0.54
CG18628	DRSC10328	0.396
RIC-3 (RIC3 acetylcholine receptor chaperone)	DRSC04243	-0.0881
RIC-3 (RIC3 acetylcholine receptor chaperone)	DRSC04543	0.978
Hr83 (Hormone receptor 83)	DRSC12521	-0.483
bft (retired record)	DRSC21354	1.67
TER94 (Transitional endoplasmic reticulum 94)	DRSC07560	0.507
ppk6 (pickpocket 6)	DRSC06062	-0.156
CG13198	DRSC06323	0.543
pr (purple)	DRSC03596	-1
CG31548	DRSC22640	-0.589
CG10725	DRSC09788	2.42
ppk9 (pickpocket 9)	DRSC04134	1.16
ppk9 (pickpocket 9)	DRSC04135	0.358
aph-1 (anterior pharynx defective 1)	DRSC00547	-1.4
Ndf (Nucleosome-destabilizing factor)	DRSC02775	-0.0737
Apc (APC-like)	DRSC14114	-0.26
CG14182	DRSC10181	-0.946
CG6870	DRSC02998	-0.149
Ptr (Patched-related)	DRSC04852	0.643
Ptr (Patched-related)	DRSC21517	-0.203
Ir67b (Ionotropic receptor 67b)	DRSC09876	-0.937
CG6800	DRSC16119	1.09
TyrRS-m (Tyrosyl-tRNA synthetase, mitochondrial)	DRSC04286	1
Mekk1	DRSC16302	-1.04
Mekk1	DRSC16303	-0.88
CG11658	DRSC09852	1.19
Or67d (Odorant receptor 67d)	DRSC10158	1.17
CG14974	DRSC08433	-0.431
RpL26 (Ribosomal protein L26)	DRSC10726	2.71
EMC2B + EMC2A	DRSC15241	1.44
CG10514	DRSC14249	0.923

Part of the list above, reformatted.
{"gene knocked down":"Men (Malic enzyme)","DRSC id":"DRSC22694","droplet/nuclear area B-score, replicate 1":0.00489}
{"gene knocked down":"CG2975","DRSC id":"DRSC00556","droplet/nuclear area B-score, replicate 1":1.57}
{"gene knocked down":"LSm7 (Like Sm 7)","DRSC id":"DRSC02251","droplet/nuclear area B-score, replicate 1":-0.531}
{"gene knocked down":"nero","DRSC id":"DRSC15432","droplet/nuclear area B-score, replicate 1":-0.157}
{"gene knocked down":"CG14950 (retired record)","DRSC id":"DRSC08409","droplet/nuclear area B-score, replicate 1":-0.15}
{"gene knocked down":"SMC1 (Structural maintenance of chromosomes 1)","DRSC id":"DRSC16846","droplet/nuclear area B-score, replicate 1":-0.308}
{"gene knocked down":"GstE4 (Glutathione S transferase E4)","DRSC id":"DRSC06674","droplet/nuclear area B-score, replicate 1":-0.803}
{"gene knocked down":"amd (alpha methyl dopa-resistant)","DRSC id":"DRSC02608","droplet/nuclear area B-score, replicate 1":1.24}
